# Test results from patent publication US20240366661A1, “COMPOSITIONS FOR AND METHODS OF TREATING A SUBJECT HAVING INFLAMMATION” (The George Washington University, priority 2022, published 2024).
# At least one structure is not confirmed: it was looked up by name or label, or the drawing left a doubt.
# System: murine bone marrow derived macrophages (BMDMs)
# Experiment: QRT-PCR of M2 markers in bone marrow derived macrophages pre-treated with HDAC11 inhibitor and polarized to M2
# Format: cell-based
# Conditions: inhibitor 5 μM pre-treatment overnight prior to M2 polarization
# Protocol: Upon treatment with M-CSF, bone marrow-derived monocytes (BMDM) differentiate into naïve (M0) macrophages. In the case of peritoneal exudate macrophages (PEMs), naïve M0 macrophages are isolated from the peritoneal cavity. These M0 macrophages are pre-treated with HDAC11 inhibitor followed by polarization to M2 macrophages with IL4 and IL13 cytokines or other cytokine mix including but not limited to IL10 and TGF beta.
# Next, HDAC11 inhibitors were evaluated for their ability to modulate the function of macrophages. […] These commercially available HDAC11 inhibitors were tested on macrophages in-vitro to identify their macrophage modulatory properties. Next, BMDMs were isolated and polarized towards M2 phenotype with HDAC11 inhibitor pre-treatment overnight.
structure (smiles),measurement,value
C=C(C)[C@@H](CC=C(C)C)C[C@@]12C[C@@H](CC=C(C)C)C(C)(C)[C@@](CC=C(C)C)(C(=O)C(C(=O)c3ccc(O)c(O)c3)=C1O)C2=O [Garcinol],Fizz1 expression,further enhanced the expression of Fizz1
